PubChem BioAssay AID504444 (National Center for Advancing Translational Sciences (NCATS), 2011)
Hit rate of the full screen: of about 360,000 compounds, about 7,500 (2.1%) were called active. Inconclusive results, whose numbers are uncertain, are shown with a selection of clear calls. The call rests on the fitted dose curve; in most records, active means well fitted inhibition curve with a large enough effect; inconclusive means small, poorly fitted or top-dose-only effect, or effect the other way; inactive means flat fitted curve, though single readings scatter. A potency beside an inconclusive call is a rough fit, not a confirmed value.

Assay: Nrf2 qHTS screen for inhibitors; further: nearly all actives have a fitted effect of over 60% in size
Settings: A549 ARE-Fluc reporter, luciferase luminescence, 18-24 h; activity change, negative = inhibition: at 46 µM (top of the series)
How it was run: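 Nrf2 function is reported as luminescence of an ARE-controlled luciferase in A549 cells. Compounds were tested at several concentrations, and a CellTiter-Fluor read on the same wells flagged cytotoxicity.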
On the % scale 0 is the no-effect control and ±100 the full control effect; potency means the concentration at half of the fitted maximal effect.

| Compound | Potency | activity change, negative = inhibition |
| --- | --- | --- |
| CCCCNC(=O)CN1C(=O)c2cccnc2Sc2ccccc21 | inconclusive: 29.1 µM [activator, single point] | – |
| O=C(O)c1ccc(-n2ncc3c2/C(=C/c2cccc([N+](=O)[O-])c2)CC3)cc1 | inconclusive: 0.461 µM [activator, full curve] | – |
| CCN(CC)c1ccc(/C=C2\CCC(/C=N/NC(=O)c3ccc(=O)n(C)c3)=C2N2CCOCC2)cc1 | – | inactive: -5.28% |
| CC(C)c1ccc(Nc2nnc(SCC(=O)c3nnc(-c4ccccc4)o3)s2)cc1 | inconclusive: 4.61 µM [activator, full curve, poor fit] | – |
| O=C(c1ccccc1Sc1ccccc1[N+](=O)[O-])N1CCCCC1 | inconclusive: 2.06 µM [falling, full curve, poor fit] | – |
| COc1ccc(C)cc1NC(=O)c1cc(S(=O)(=O)N2CCOCC2)cn1C | inconclusive: 0.651 µM [falling, partial curve, poor fit] | – |
| Cc1ccc(Nc2nc(-c3ccc(C)cc3)c(CC(=O)O)s2)cc1 | – | inactive: 1.42% |
| Clc1ccc(-[n+]2c(-c3cccc(Br)c3)[nH]c3nc4ccccc4nc32)cc1 | inconclusive: 13 µM [falling, partial curve, poor fit] | – |
| Cc1ccc(C(=O)NNC(=O)c2ccc3c(c2)OCCO3)cc1 | inconclusive: 2.31 µM [activator, full curve] | – |
| CC(=O)N1CC(C)Sc2ccc(S(=O)(=O)NCc3ccccc3Cl)cc21 (stereo not drawn) | inconclusive: 16.4 µM [falling, single point] | – |
| Cc1ccc(CNC(=O)CN(C)C2=NS(=O)(=O)c3ccccc32)cc1 | inconclusive: 20.6 µM [falling, partial curve, poor fit] | – |
| COc1ccc(OC)c(N=Nc2c(O)c3ccccc3[nH]c2=O)c1 | inconclusive: 32.6 µM [falling, partial curve, poor fit] | – |
| O=C(O)COc1ccccc1/C=N/NC(=O)CSc1nc2ccccc2n1Cc1ccc(Cl)cc1 | – | inactive: 12.6% |
| O=c1cc(-c2ccncc2)oc2c1ccc1ccccc12 | active: 18.4 µM | – |
| Cc1cccc(N(O)C(=O)Nc2cccc(Cl)c2)c1 | inconclusive: 25.9 µM [activator, partial curve, poor fit] | – |
| CCOC(=O)Cn1nnc(-c2cccc(OC)c2)n1 | inconclusive: 18.4 µM [activator, single point] | – |
| CC1=Nc2ccccc2N=C(N)C1c1ccccc1 (stereo not drawn) | inconclusive: 2.59 µM [activator, full curve] | – |
| CCc1sc(C(=O)Nc2nc(C)cs2)cc1C | inconclusive: 2.31 µM [activator, full curve] | – |
| CCCCNC(=O)c1c(-c2ccccc2)c(-c2ccccc2)nn(C)c1=O | inconclusive: 9.2 µM [activator, partial curve, poor fit] | – |
| Cc1oc2ncn(CC(C)C)c(=O)c2c1C(=O)N(CCN(C)C)Cc1ccccc1 | inconclusive: 14.6 µM [activator, partial curve, poor fit] | – |
| Cc1ccc2c(c1)N(C(=O)N1CCC(C(=O)NCc3ccccc3C)CC1)CC(C)O2 (stereo not drawn) | – | inactive: 11.5% |
| COc1ccc(OC)c(NC(=O)C(C)OC(=O)c2cc3ccccc3[nH]2)c1 (stereo not drawn) | active: 18.4 µM | – |

| Compound | Potency | activity change, negative = inhibition |
| --- | --- | --- |
| COc1ccc(S(=O)(=O)NCCSc2nnnn2-c2ccccc2)cc1OC | inconclusive: 16.4 µM [falling, single point] | – |
| CCN(Cc1ccccc1)C(=O)c1cc(-c2ccccc2)n[nH]1 | inconclusive: 25.9 µM [falling, single point] | – |
| O=C(c1ccc(NS(=O)(=O)c2ccc(F)cc2)cc1)N1CCCCC1 | – | inactive: -21.6% |
| Cc1c(C(=O)O)c(O)cc2c1C(=O)c1c(O)c([C@@H]3O[C@H](CO)[C@@H](O)[C@H](O)[C@H]3O)c(O)c(O)c1C2=O | inconclusive: 25.9 µM [falling, single point] | – |
| CC(=O)Nc1ccc(SC(Sc2ccc(NC(C)=O)cc2)c2ccccc2)cc1 | inconclusive: 32.6 µM [falling, single point] | – |
| O=[N+]([O-])c1ccc(Cl)cc1NCc1cccnc1 | inconclusive: 7.31 µM [falling, partial curve] | – |
| COc1c(-c2ccccc2)oc2c(ccc3occc32)c1=O | inconclusive: 29.1 µM [falling, single point] | – |
| Cc1ccc(NC(=O)N2CCCC2C(=O)NCC2CCCCC2)cc1 (stereo not drawn) | – | inactive: -9.67% |
| COc1ccc(NC(=O)CSc2ncc(-c3ccc(F)cc3)n2Cc2ccco2)cc1 | active: 15.8 µM | – |
| CC(=O)CCSc1ncnc2sc(-c3ccccc3)cc12 | inconclusive: 1.64 µM [activator, partial curve] | – |
| Cc1cc(Br)ccc1NC(=O)CN(C)C(=O)COc1cccc2c1OC(C)(C)C2 | active: 20.6 µM | – |
| COc1cccc(OCc2cc(C(=O)N(C)CCC3CCCCO3)no2)c1 (stereo not drawn) | inconclusive: 9.2 µM [activator, partial curve, poor fit] | – |
| O=C(c1ccc2c(=O)n(-c3ccccc3)c(=S)[nH]c2c1)N1CCN(c2ccccc2)CC1 | inconclusive: 29.1 µM [falling, single point] | – |
| COc1ccc(-c2cc(C(F)(F)F)nc(SCC(=O)Nc3cc(C)on3)n2)cc1OC | – | inactive: -27.3% |
| Cc1ccc(N(Cc2cccs2)C(=O)C(C)Oc2ccc(Cl)c(C)c2)cc1 (stereo not drawn) | inconclusive: 20.6 µM [falling, single point] | – |
| CCOc1ccccc1NC(=O)CCCc1nc(-c2ccccc2Cl)no1 | – | inactive: -18% |
| COc1cccc2c1C(CCCC(=O)O)CCC2 (stereo not drawn) | – | inactive: -20.1% |
| CC(C)(C)C(=O)N1CCc2cc(-c3csc(N)n3)ccc21 | inconclusive: 0.58 µM [activator, partial curve, poor fit] | – |
| CCOC(=O)N1CCC(NC(=O)c2ccc3c(c2)N=C(CC)c2cc(C)ccc2S3)CC1 | active: 23.1 µM | – |
| CCOC(=O)N1CCN(c2nc(-c3ccccc3)c3cc(C)ccc3n2)CC1 | inconclusive: 9.2 µM [falling, partial curve, poor fit] | – |
| Cc1ccc(Cn2c(C)nc3c(c2=O)c2nc4ccccc4nc2n3Cc2ccco2)cc1 | inconclusive: 32.6 µM [falling, single point] | – |

Exported as comma-separated lines: part of the list above.
Compound,Potency,"activity change, negative = inhibition"
COc1ccc(S(=O)(=O)NCCSc2nnnn2-c2ccccc2)cc1OC,"inconclusive: 16.4 µM [falling, single point]",–
CCN(Cc1ccccc1)C(=O)c1cc(-c2ccccc2)n[nH]1,"inconclusive: 25.9 µM [falling, single point]",–
Cc1c(C(=O)O)c(O)cc2c1C(=O)c1c(O)c([C@@H]3O[C@H](CO)[C@@H](O)[C@H](O)[C@H]3O)c(O)c(O)c1C2=O,"inconclusive: 25.9 µM [falling, single point]",–
CC(=O)Nc1ccc(SC(Sc2ccc(NC(C)=O)cc2)c2ccccc2)cc1,"inconclusive: 32.6 µM [falling, single point]",–
O=[N+]([O-])c1ccc(Cl)cc1NCc1cccnc1,"inconclusive: 7.31 µM [falling, partial curve]",–
COc1ccc(NC(=O)CSc2ncc(-c3ccc(F)cc3)n2Cc2ccco2)cc1,active: 15.8 µM,–
Cc1cc(Br)ccc1NC(=O)CN(C)C(=O)COc1cccc2c1OC(C)(C)C2,active: 20.6 µM,–
COc1ccc(-c2cc(C(F)(F)F)nc(SCC(=O)Nc3cc(C)on3)n2)cc1OC,–,inactive: -27.3%
CCOc1ccccc1NC(=O)CCCc1nc(-c2ccccc2Cl)no1,–,inactive: -18%
COc1cccc2c1C(CCCC(=O)O)CCC2 (stereo not drawn),–,inactive: -20.1%
CCOC(=O)N1CCC(NC(=O)c2ccc3c(c2)N=C(CC)c2cc(C)ccc2S3)CC1,active: 23.1 µM,–
Cc1ccc(Cn2c(C)nc3c(c2=O)c2nc4ccccc4nc2n3Cc2ccco2)cc1,"inconclusive: 32.6 µM [falling, single point]",–
